Laboratory results: PubChem BioAssay AID1259254 (NCATS, 2017)
Test: 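Finding genes that stop cells copying their DNA twice in one cycle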 (primary screen). Cell system: human HCT116 colorectal cancer cells. Reagent: single siRNA against human genes. Timing: 3 days. Measurement: 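Nuclei stained with Hoechst and imaged; cell-cycle phase assigned by DNA content; G2 share scaled per plate, non-targeting siRNA 0%, GMNN siRNA 100%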. Reading the numbers: G2 robust z-score and G2 cells, % of GMNN control: higher = more G2 cells, more excess DNA replication. Call rule: 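Active siRNAs have a G2 robust z of 5 or more median absolute deviations over the median, which in these data means about 38% or higher of GMNN control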.
In all, the deposit lists about 59,000 reagents; this is a random part of them. About 1,550 of them (2.6%) count as active. 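G2 share is only a proxy for re-replication; each gene was hit by three separate siRNAs, and active genes were retested.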 Entries without a mark were called inactive. The numbers tell different reagents against one gene apart. Further read-outs or replicates are left out here. The record does not give: the amount of reagent.

OR4E1 #1
- G2 robust z-score: 0.089
- G2 cells, % of GMNN control: 3.59

OR4E1 #2
- G2 robust z-score: 0.382
- G2 cells, % of GMNN control: 5.65

OR4E1 #3
- G2 robust z-score: -0.789
- G2 cells, % of GMNN control: -2.58

TSG101 #1
- G2 robust z-score: 1.1
- G2 cells, % of GMNN control: 10.7

TSG101 #2
- G2 robust z-score: 0.83
- G2 cells, % of GMNN control: 8.8

TSG101 #3
- G2 robust z-score: 2.09
- G2 cells, % of GMNN control: 17.7

C1QC #1
- G2 robust z-score: -0.701
- G2 cells, % of GMNN control: -1.96

C1QC #2
- G2 robust z-score: -0.5
- G2 cells, % of GMNN control: -0.551

C1QC #3
- G2 robust z-score: 0.778
- G2 cells, % of GMNN control: 8.44

HAL #1
- G2 robust z-score: -0.631
- G2 cells, % of GMNN control: -1.47

HAL #2
- G2 robust z-score: -0.4
- G2 cells, % of GMNN control: 0.154

HAL #3
- G2 robust z-score: 0.732
- G2 cells, % of GMNN control: 8.12

ZNF449 #1
- G2 robust z-score: -0.57
- G2 cells, % of GMNN control: -1.04

ZNF449 #2
- G2 robust z-score: 0.492
- G2 cells, % of GMNN control: 6.43

ZNF449 #3
- G2 robust z-score: -0.739
- G2 cells, % of GMNN control: -2.23

Next part, starting with the last 3 of the part before.
ZNF449 #1
- G2 robust z-score: -0.57
- G2 cells, % of GMNN control: -1.04

ZNF449 #2
- G2 robust z-score: 0.492
- G2 cells, % of GMNN control: 6.43

ZNF449 #3
- G2 robust z-score: -0.739
- G2 cells, % of GMNN control: -2.23

BAHD1 #1
- G2 robust z-score: -0.663
- G2 cells, % of GMNN control: -1.7

BAHD1 #2
- G2 robust z-score: -1.01
- G2 cells, % of GMNN control: -4.15

BAHD1 #3
- G2 robust z-score: -1.5
- G2 cells, % of GMNN control: -7.62

BSCL2 #1
- G2 robust z-score: 0.354
- G2 cells, % of GMNN control: 5.46

BSCL2 #2
- G2 robust z-score: -0.572
- G2 cells, % of GMNN control: -1.06

BSCL2 #3
- G2 robust z-score: 0.0422
- G2 cells, % of GMNN control: 3.26

GAS6-AS1 #1
- G2 robust z-score: 0.462
- G2 cells, % of GMNN control: 6.22

GAS6-AS1 #2
- G2 robust z-score: 1.41
- G2 cells, % of GMNN control: 12.9

GAS6-AS1 #3
- G2 robust z-score: -0.13
- G2 cells, % of GMNN control: 2.05

TNF #1
- G2 robust z-score: 0.627
- G2 cells, % of GMNN control: 7.38

TNF #2
- G2 robust z-score: -0.407
- G2 cells, % of GMNN control: 0.107

TNF #3
- G2 robust z-score: 0.321
- G2 cells, % of GMNN control: 5.22

SCAF4 #1
- G2 robust z-score: -0.541
- G2 cells, % of GMNN control: -0.837

SCAF4 #2
- G2 robust z-score: -0.317
- G2 cells, % of GMNN control: 0.738

SCAF4 #3
- G2 robust z-score: 0.396
- G2 cells, % of GMNN control: 5.75
